These are literature values, as cited in patent publication US9610291B2, “Treatment of respiratory depression” (NUMEDICUS LIMITED, priority 2012, dated 2017).

The structures appear in SMILES notation.

For the data set the following is noted: in humans; cited from earlier work.

For `CN1c2ccccc2C(NCCCCCCC(=O)O)c2ccc(Cl)cc2S1(=O)=O` (stereo not shown) [tianeptine, 7-[(3-chloro-6,11-dihydro-6-methyl-dibenzo[c,f][1,2]thiazepin-11-yl)amino]heptanoic acid S,S-dioxide], the plasma half-life is 2.5 ± 1.1 h.
